# Some of the results follow.
# What was measured:
# Experiment in all cases: glycan array binding signal (z-score within array); higher = stronger binding
# Conditions in all cases: glycan notation: IUPAC condensed, linker removed
# [1] = target: Gal(b1-4)GlcNAc(b1-3)Gal(b1-4)GlcNAc(b1-2)Man(a1-3)[Gal(b1-4)GlcNAc(b1-3)Gal(b1-4)GlcNAc(b1-2)Man(a1-6)]Man(b1-4)GlcNAc(b1-4)[Fuc(a1-6)]GlcNAc
# How it was run: (§1)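 The Consortium for Functional Glycomics database supplied 3228 glycan arrays, of which those lacking an available protein sequence were dropped. The binding signal, a within-array Z-score, was averaged across arrays of the same protein sequence and across linkers. Negative scores can be read as non-binding.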
# [2] = target: Gal(b1-4)GlcNAc(b1-3)Gal(b1-4)GlcNAc(b1-2)[Gal(b1-4)GlcNAc(b1-3)Gal(b1-4)GlcNAc(b1-6)]Man(a1-6)[Gal(b1-4)GlcNAc(b1-3)Gal(b1-4)GlcNAc(b1-2)Man(a1-3)]Man(b1-4)GlcNAc(b1-4)GlcNAc
# How it was run: as §1
# [3] = target: Gal(b1-4)GlcNAc(b1-3)Gal(b1-4)GlcNAc(b1-2)[Gal(b1-4)GlcNAc(b1-3)Gal(b1-4)GlcNAc(b1-6)]Man(a1-6)[Gal(b1-4)GlcNAc(b1-3)Gal(b1-4)GlcNAc(b1-2)Man(a1-3)]Man(b1-4)GlcNAc(b1-4)[Fuc(a1-6)]GlcNAc
# How it was run: as §1
# [4] = target: Gal(b1-4)GlcNAc(b1-3)Gal(b1-4)GlcNAc(b1-3)Gal(b1-4)GlcNAc
# How it was run: as §1
# [5] = target: Gal(b1-4)GlcNAc(b1-3)Gal(b1-4)GlcNAc(b1-3)Gal(b1-4)GlcNAc(b1-2)Man(a1-3)[Gal(b1-4)GlcNAc(b1-3)Gal(b1-4)GlcNAc(b1-3)Gal(b1-4)GlcNAc(b1-2)Man(a1-6)]Man(b1-4)GlcNAc(b1-4)GlcNAc
# How it was run: as §1
# [6] = target: Gal(b1-4)GlcNAc(b1-3)Gal(b1-4)GlcNAc(b1-3)Gal(b1-4)GlcNAc(b1-2)Man(a1-3)[Gal(b1-4)GlcNAc(b1-3)Gal(b1-4)GlcNAc(b1-3)Gal(b1-4)GlcNAc(b1-2)Man(a1-6)]Man(b1-4)GlcNAc(b1-4)[Fuc(a1-6)]GlcNAc
# How it was run: as §1
# [7] = target: Gal(b1-4)GlcNAc(b1-3)Gal(b1-4)GlcNAc(b1-3)Gal(b1-4)GlcNAc(b1-2)[Gal(b1-4)GlcNAc(b1-3)Gal(b1-4)GlcNAc(b1-3)Gal(b1-4)GlcNAc(b1-6)]Man(a1-6)[Gal(b1-4)GlcNAc(b1-3)Gal(b1-4)GlcNAc(b1-3)Gal(b1-4)GlcNAc(b1-2)Man(a1-3)]Man(b1-4)GlcNAc(b1-4)[Fuc(a1-6)]GlcNAc
# How it was run: as §1
# [8] = target: Gal(b1-4)GlcNAc(b1-3)Gal(b1-4)GlcNAc(b1-3)Gal(b1-4)GlcNAc(b1-3)Gal(b1-4)GlcNAc(b1-2)Man(a1-3)[Gal(b1-4)GlcNAc(b1-3)Gal(b1-4)GlcNAc(b1-3)Gal(b1-4)GlcNAc(b1-3)Gal(b1-4)GlcNAc(b1-2)Man(a1-6)]Man(b1-4)GlcNAc(b1-4)GlcNAc
# How it was run: as §1
# [9] = target: Gal(b1-4)GlcNAc(b1-3)Gal(b1-4)GlcNAc(b1-3)Gal(b1-4)GlcNAc(b1-3)Gal(b1-4)GlcNAc(b1-2)Man(a1-3)[Gal(b1-4)GlcNAc(b1-3)Gal(b1-4)GlcNAc(b1-3)Gal(b1-4)GlcNAc(b1-3)Gal(b1-4)GlcNAc(b1-2)Man(a1-6)]Man(b1-4)GlcNAc(b1-4)[Fuc(a1-6)]GlcNAc
# How it was run: as §1
# [10] = target: Gal(b1-4)GlcNAc(b1-3)Gal(b1-4)GlcNAc(b1-3)Gal(b1-4)GlcNAc(b1-3)Gal(b1-4)GlcNAc(b1-2)[Gal(b1-4)GlcNAc(b1-3)Gal(b1-4)GlcNAc(b1-3)Gal(b1-4)GlcNAc(b1-3)Gal(b1-4)GlcNAc(b1-6)]Man(a1-6)[Gal(b1-4)GlcNAc(b1-3)Gal(b1-4)GlcNAc(b1-3)Gal(b1-4)GlcNAc(b1-3)Gal(b1-4)GlcNAc(b1-2)Man(a1-3)]Man(b1-4)GlcNAc(b1-4)[Fuc(a1-6)]GlcNAc
# How it was run: as §1
# [11] = target: Gal(b1-4)GlcNAc(b1-3)Gal(b1-4)GlcNAc(b1-3)Gal(b1-4)GlcNAc(b1-3)Gal(b1-4)GlcNAc(b1-3)Gal(b1-4)GlcNAc(b1-2)Man(a1-3)[Gal(b1-4)GlcNAc(b1-3)Gal(b1-4)GlcNAc(b1-3)Gal(b1-4)GlcNAc(b1-3)Gal(b1-4)GlcNAc(b1-3)Gal(b1-4)GlcNAc(b1-2)Man(a1-6)]Man(b1-4)GlcNAc(b1-4)GlcNAc
# How it was run: as §1
# [12] = target: Gal(b1-4)GlcNAc(b1-3)Gal(b1-4)GlcNAc(b1-3)Gal(b1-4)GlcNAc(b1-3)Gal(b1-4)GlcNAc(b1-3)Gal(b1-4)GlcNAc(b1-2)Man(a1-3)[Gal(b1-4)GlcNAc(b1-3)Gal(b1-4)GlcNAc(b1-3)Gal(b1-4)GlcNAc(b1-3)Gal(b1-4)GlcNAc(b1-3)Gal(b1-4)GlcNAc(b1-2)Man(a1-6)]Man(b1-4)GlcNAc(b1-4)[Fuc(a1-6)]GlcNAc
# How it was run: as §1
# [13] = target: Gal(b1-4)GlcNAc(b1-3)Gal(b1-4)GlcNAc(b1-3)Gal(b1-4)GlcNAc(b1-3)Gal(b1-4)GlcNAc(b1-3)Gal(b1-4)GlcNAc(b1-2)[Gal(b1-4)GlcNAc(b1-3)Gal(b1-4)GlcNAc(b1-3)Gal(b1-4)GlcNAc(b1-3)Gal(b1-4)GlcNAc(b1-3)Gal(b1-4)GlcNAc(b1-6)]Man(a1-6)[Gal(b1-4)GlcNAc(b1-3)Gal(b1-4)GlcNAc(b1-3)Gal(b1-4)GlcNAc(b1-3)Gal(b1-4)GlcNAc(b1-3)Gal(b1-4)GlcNAc(b1-2)Man(a1-3)]Man(b1-4)GlcNAc(b1-4)[Fuc(a1-6)]GlcNAc
# How it was run: as §1
# [14] = target: Gal(b1-4)GlcNAc(b1-3)Gal(b1-4)GlcNAc(b1-3)Gal(b1-4)GlcNAc(b1-3)Gal(b1-4)GlcNAc(b1-3)Gal(b1-4)GlcNAc(b1-3)Gal(b1-4)GlcNAc(b1-2)Man(a1-3)[Gal(b1-4)GlcNAc(b1-3)Gal(b1-4)GlcNAc(b1-3)Gal(b1-4)GlcNAc(b1-3)Gal(b1-4)GlcNAc(b1-3)Gal(b1-4)GlcNAc(b1-3)Gal(b1-4)GlcNAc(b1-2)Man(a1-6)]Man(b1-4)GlcNAc(b1-4)GlcNAc
# How it was run: as §1
# [15] = target: Gal(b1-4)GlcNAc(b1-3)Gal(b1-4)GlcNAc(b1-3)GalNAc
# How it was run: as §1
# [16] = target: Gal(b1-4)GlcNAc(b1-3)Gal(b1-4)GlcNAc(b1-3)[Gal(b1-4)GlcNAc(b1-3)Gal(b1-4)GlcNAc(b1-6)]GalNAc
# How it was run: as §1
# [17] = target: Gal(b1-4)GlcNAc(b1-3)Gal(b1-4)GlcNAc(b1-6)[Gal(b1-3)]GalNAc
# How it was run: as §1
# [18] = target: Gal(b1-4)GlcNAc(b1-3)Gal(b1-4)[Fuc(a1-3)]GlcNAc(b1-3)Gal(b1-4)[Fuc(a1-3)]GlcNAc
# How it was run: as §1
# [19] = target: Gal(b1-4)GlcNAc(b1-3)GalNAc
# How it was run: as §1
# [20] = target: Gal(b1-4)GlcNAc(b1-3)[Fuc(a1-3)GlcNAc(b1-6)]Gal(b1-4)Glc
# How it was run: as §1
# [21] = target: Gal(b1-4)GlcNAc(b1-3)[Gal(b1-4)GlcNAc(b1-6)]Gal(b1-4)GlcNAc
# How it was run: as §1
# [22] = target: Gal(b1-4)GlcNAc(b1-3)[GlcNAc(b1-6)]Gal(b1-4)GlcNAc
# How it was run: as §1
binder,measurement,setting,value
"AT1G80310(18) (Arabidopsis thaliana), Q0WP36 (protein) METTTTPLLPGDRSRCGWLRRRLRLKNPLSSELSGAVGDLGTFIPIVLTLTLVSNLDLSTTLIFTGFYNIATGLLFDIPMPVQPMKSIAAVAVSESPHLTPSQIAAAGASTAATLLLLGATGAMSFLYNIIPLPVVRGVQLSQGLQFAFTAIKYVRFNYDTATLKPSSSPRIWLGLDGLILALAALLFIILSTGSGNDREAEDGDLAETSSNESQSRRRRLRLLSSIPSALIVFALGLVLCFIRDPSIFKDLKFGPSKFHILRISWDDWKIGFLRAAIPQIPLSVLNSVIAVCKLSNDLFDKELSATTVSISVGVMNLIGCWFGAMPVCHGAGGLAGQYRFGARSGLSVIFLGIGKLIVGLVFGNSFVRILSQFPIGILGVLLLFAGIELAMASKDMNSKEDSFIMLVCAAVSMTGSSAALGFGCGVVLYLLLKLRTLDCSSVTLFSRSSDESQVDSEAAPRDV",glycan array binding signal (z-score),[1],-0.63
same,glycan array binding signal (z-score),[2],0.12
same,glycan array binding signal (z-score),[3],-0.096
same,glycan array binding signal (z-score),[4],-0.53
same,glycan array binding signal (z-score),[5],-0.649
same,glycan array binding signal (z-score),[6],-0.004
same,glycan array binding signal (z-score),[7],-0.559
same,glycan array binding signal (z-score),[8],-0.654
same,glycan array binding signal (z-score),[9],-0.386
same,glycan array binding signal (z-score),[10],-0.802
same,glycan array binding signal (z-score),[11],-0.545
same,glycan array binding signal (z-score),[12],-0.718
same,glycan array binding signal (z-score),[13],-0.714
same,glycan array binding signal (z-score),[14],-0.849
same,glycan array binding signal (z-score),[15],-0.75
same,glycan array binding signal (z-score),[16],-0.689
same,glycan array binding signal (z-score),[17],-0.516
same,glycan array binding signal (z-score),[18],-0.8
same,glycan array binding signal (z-score),[19],-0.162
same,glycan array binding signal (z-score),[20],-0.307
same,glycan array binding signal (z-score),[21],-0.576
same,glycan array binding signal (z-score),[22],0.817

# A different layout for part of the listing above.
binder	measurement	setting	value
AT1G80310(18) (Arabidopsis thaliana), Q0WP36 (protein) METTTTPLLPGDRSRCGWLRRRLRLKNPLSSELSGAVGDLGTFIPIVLTLTLVSNLDLSTTLIFTGFYNIATGLLFDIPMPVQPMKSIAAVAVSESPHLTPSQIAAAGASTAATLLLLGATGAMSFLYNIIPLPVVRGVQLSQGLQFAFTAIKYVRFNYDTATLKPSSSPRIWLGLDGLILALAALLFIILSTGSGNDREAEDGDLAETSSNESQSRRRRLRLLSSIPSALIVFALGLVLCFIRDPSIFKDLKFGPSKFHILRISWDDWKIGFLRAAIPQIPLSVLNSVIAVCKLSNDLFDKELSATTVSISVGVMNLIGCWFGAMPVCHGAGGLAGQYRFGARSGLSVIFLGIGKLIVGLVFGNSFVRILSQFPIGILGVLLLFAGIELAMASKDMNSKEDSFIMLVCAAVSMTGSSAALGFGCGVVLYLLLKLRTLDCSSVTLFSRSSDESQVDSEAAPRDV	glycan array binding signal (z-score)	[15]	-0.75
same	glycan array binding signal (z-score)	[16]	-0.689
